{
  "sequences": {"note": "The chains behind the UniProt entries cited, without tags or fusion partners. Residues count along the entry.", "UniProt P18850": "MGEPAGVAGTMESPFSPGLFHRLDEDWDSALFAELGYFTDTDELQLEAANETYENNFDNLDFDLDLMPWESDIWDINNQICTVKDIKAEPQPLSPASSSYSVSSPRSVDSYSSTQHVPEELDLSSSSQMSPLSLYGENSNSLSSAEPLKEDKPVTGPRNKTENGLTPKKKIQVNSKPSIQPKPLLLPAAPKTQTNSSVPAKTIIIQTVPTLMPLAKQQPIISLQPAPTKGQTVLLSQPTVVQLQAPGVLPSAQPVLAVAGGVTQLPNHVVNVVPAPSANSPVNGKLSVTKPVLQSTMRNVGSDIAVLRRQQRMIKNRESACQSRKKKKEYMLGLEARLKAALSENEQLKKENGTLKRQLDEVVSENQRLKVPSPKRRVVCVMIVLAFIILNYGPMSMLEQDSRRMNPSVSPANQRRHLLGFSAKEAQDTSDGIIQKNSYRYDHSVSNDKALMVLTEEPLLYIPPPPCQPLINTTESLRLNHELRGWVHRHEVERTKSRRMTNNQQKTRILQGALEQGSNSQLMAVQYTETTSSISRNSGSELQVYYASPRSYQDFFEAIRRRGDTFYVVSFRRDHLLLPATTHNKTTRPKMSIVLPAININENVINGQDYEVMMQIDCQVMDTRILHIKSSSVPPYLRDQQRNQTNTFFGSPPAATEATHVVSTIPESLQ", "UniProt O75460, residues 19-977": "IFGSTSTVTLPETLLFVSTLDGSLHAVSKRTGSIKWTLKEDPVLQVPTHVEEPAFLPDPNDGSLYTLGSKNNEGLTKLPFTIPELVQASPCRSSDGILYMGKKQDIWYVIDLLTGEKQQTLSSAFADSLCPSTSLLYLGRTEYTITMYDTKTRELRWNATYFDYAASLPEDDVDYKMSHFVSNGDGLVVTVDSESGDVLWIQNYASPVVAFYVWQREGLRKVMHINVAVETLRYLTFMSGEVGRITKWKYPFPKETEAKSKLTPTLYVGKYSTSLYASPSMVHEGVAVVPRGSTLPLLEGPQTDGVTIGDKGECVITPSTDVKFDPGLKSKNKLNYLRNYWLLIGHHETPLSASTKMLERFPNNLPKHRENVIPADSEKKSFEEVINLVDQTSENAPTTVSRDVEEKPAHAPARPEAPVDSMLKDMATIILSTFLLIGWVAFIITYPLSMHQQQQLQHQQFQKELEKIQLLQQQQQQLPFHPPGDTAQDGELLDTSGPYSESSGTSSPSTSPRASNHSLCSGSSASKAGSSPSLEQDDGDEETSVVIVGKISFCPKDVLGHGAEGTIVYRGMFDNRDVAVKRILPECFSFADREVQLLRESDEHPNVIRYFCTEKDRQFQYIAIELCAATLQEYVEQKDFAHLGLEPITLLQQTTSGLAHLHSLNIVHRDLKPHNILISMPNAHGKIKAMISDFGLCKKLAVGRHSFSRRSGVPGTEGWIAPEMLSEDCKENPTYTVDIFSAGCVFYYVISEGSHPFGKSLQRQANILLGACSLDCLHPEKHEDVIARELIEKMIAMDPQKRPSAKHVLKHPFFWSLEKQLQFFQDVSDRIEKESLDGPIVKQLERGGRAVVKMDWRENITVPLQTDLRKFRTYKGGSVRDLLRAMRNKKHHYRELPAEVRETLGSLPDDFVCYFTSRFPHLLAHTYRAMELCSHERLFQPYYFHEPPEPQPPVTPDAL", "UniProt P11021, residues 19-654": "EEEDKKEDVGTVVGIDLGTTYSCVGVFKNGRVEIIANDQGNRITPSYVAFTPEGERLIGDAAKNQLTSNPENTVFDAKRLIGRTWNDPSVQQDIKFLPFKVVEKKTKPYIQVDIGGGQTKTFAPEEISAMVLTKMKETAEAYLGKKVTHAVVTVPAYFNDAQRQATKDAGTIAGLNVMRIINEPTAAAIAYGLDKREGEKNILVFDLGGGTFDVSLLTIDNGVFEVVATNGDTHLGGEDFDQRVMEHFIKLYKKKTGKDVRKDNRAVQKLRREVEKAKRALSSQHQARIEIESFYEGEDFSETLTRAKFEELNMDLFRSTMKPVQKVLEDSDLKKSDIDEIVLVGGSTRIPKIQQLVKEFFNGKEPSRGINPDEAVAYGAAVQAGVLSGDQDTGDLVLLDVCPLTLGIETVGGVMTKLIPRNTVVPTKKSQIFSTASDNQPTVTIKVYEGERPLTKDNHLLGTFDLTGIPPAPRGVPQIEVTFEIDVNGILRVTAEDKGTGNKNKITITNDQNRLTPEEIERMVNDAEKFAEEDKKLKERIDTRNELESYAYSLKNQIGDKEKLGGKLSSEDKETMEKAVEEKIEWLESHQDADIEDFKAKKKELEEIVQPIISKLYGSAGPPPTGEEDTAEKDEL", "UniProt Q49AH0, residues 25-187": "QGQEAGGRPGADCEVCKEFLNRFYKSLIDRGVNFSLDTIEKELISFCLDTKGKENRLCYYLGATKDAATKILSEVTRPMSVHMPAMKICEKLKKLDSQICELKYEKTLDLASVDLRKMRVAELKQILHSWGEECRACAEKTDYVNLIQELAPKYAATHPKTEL"},
  "source": "paper doi:10.1101/2024.12.17.628889",
  "key": {"[1]": {"biological_target": "ATF6 BiFC (Venus) construct (UniProt P18850)", "experiment": "split reporter"}, "[2]": {"biological_target": "IRE1α BiFC construct (pEZY BiFC IRE1a-NV(CV)) (UniProt O75460)", "experiment": "split reporter"}, "[3]": {"biological_target": "BiP BiFC construct (pEZY BiFC Grp78-NV(CV)) (UniProt P11021)", "experiment": "split reporter"}, "[4]": {"biological_target": "endogenous IRE1α (human (endogenous in Flp-In-T-REx 293)) (UniProt O75460)", "experiment": "proximity ligation"}, "[5]": {"biological_target": "full-length IRE1α-green fluorescent protein (GFP) (UniProt O75460)", "experiment": "MST"}},
  "note": "No constants are given. Whether binding was seen depends on the method and setting. For some assays here: Binding seen in cells or lysates may run through a third protein. Some results given as binding are weak or reduced against the parent protein; the word gives no strength.",
  "data": [
    {"substance": "CDNF BiFC construct (pEZY BiFC pre-CDNF-NV(CV)) (from UniProt Q49AH0 25-187)", "values": [
      {"measurement": "binding", "setting": "[1]", "result": "binds"},
      {"measurement": "binding", "setting": "[2]", "result": "binds"},
      {"measurement": "binding", "setting": "[3]", "result": "binds"}
    ]},
    {"substance": "CDNF-hemagglutinin (HA) (from UniProt Q49AH0 25-187)", "values": [
      {"measurement": "binding", "setting": "[4]", "result": "binds"}
    ]},
    {"substance": "cerebral dopamine neurotrophic factor (CDNF), recombinant human protein (from UniProt Q49AH0 25-187)", "values": [
      {"measurement": "binding", "setting": "[5]", "result": "binds"}
    ]}
  ]
}
